Data: PubChem BioAssay AID624291 (National Center for Advancing Translational Sciences (NCATS), 2012)
In all, about 350,000 compounds went through this assay and about 220 (0.063%) were called active. The inconclusive results got no clear call from the source; some entries with a clear call stand among them for comparison. Calls follow the shape of the dose curve; as a rule, active = well fitted activation curve with a large enough effect; inconclusive = small, poorly fitted or top-dose-only effect; inactive = no such curve, though single readings can be large or run the other way. Where the call is inconclusive, the potency comes from a doubtful curve fit.

test: qHTS for Activators of Integrin-Mediated Alleviation for Muscular Dystrophy; conditions: alpha7betagal myoblasts, beta-gal FDG fluorescence, 48 h; activation: at 38.3 µM (top of the series); also: nearly all actives have a fitted effect of over 60% in size;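 as to activation: 100% = response of the positive control SU9516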
Method in brief: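 alpha7betagal+/- myoblasts (passage 13, 250/well) treated 48 h at 37C with compounds at 1:260 dilution of DMSO stock. Lysed, then beta-galactosidase activity read as FDG fluorescence (ex 480/em 540) after 30 min, with pre-read for autofluorescence.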
Potency is read from the fitted curve at half-maximal effect.

Potency, inconclusive:
Cc1cc(C(=O)COC(=O)C2=NNC(=O)CC2)c(C)n1-c1ccc(OC(F)F)cc1 5.01 µM [activator, single point]
COc1ccc(Br)cc1CNC(=O)Cn1nc(C)n2cccc2c1=O 10 µM [activator, single point]
CC(C)(C)NC(=O)NC(=O)COC(=O)c1c(F)cccc1Cl 2.51 µM [activator, single point]
O=C(Nc1ccc(F)cc1)c1sc2cc(C(F)(F)F)cnc2c1-c1cccs1 12.6 µM [activator, partial curve, poor fit]
CC(C)c1cc(C(=O)N2CCCC(N3CCN(c4ccccc4F)CC3)C2)nc(N)n1 (configuration not stated) 2.82 µM [activator, single point]
O=C(O)c1ccc(Cl)c(NCc2cccnc2)c1 5.01 µM [activator, single point]
NS(=O)(=O)c1ccc(CCNC(=O)CSc2cccs2)cc1 25.1 µM [activator, single point]
Cc1ccc(NC(=O)NCCCN2CCCC2=O)cc1Cl 2.82 µM [activator, single point]
O=C(NNC1CC(=O)N(c2ccc(Cl)cc2)C1=O)c1ccco1 (configuration not stated) 28.2 µM [activator, single point]
C[C@H](NC(N)=O)C(=O)Nc1ccc2c(c1)OCO2 5.01 µM [activator, single point]
CCOc1ccc(C(=O)Nc2ccc3[nH]ncc3c2)cc1 28.2 µM [activator, single point]
C=CCn1c2ccccc2c2nnc(SCC(N)=O)nc21 3.98 µM [activator, single point]
COC(=O)c1ccc(COC(=O)c2ccc(-n3cnnn3)cc2)o1 12.6 µM [activator, partial curve, poor fit]
Cc1cc(-c2ccccc2)nc(SCc2ccc(C(=O)O)cc2)n1 3.55 µM [activator, single point]
CCN(CC)S(=O)(=O)c1cccc(NC(=O)COC(=O)CCC(=O)c2cccs2)c1 11.2 µM [activator, partial curve, poor fit]
COc1ccc(CNC(=O)CSc2nnc(-c3cccnc3)n2N)cc1 2.51 µM [activator, partial curve, poor fit]
Nc1ccccc1C#Cc1ccc([N+](=O)[O-])cc1 2.82 µM [activator, single point]
O=C(O)c1ccc(NCc2cccnc2)c([N+](=O)[O-])c1 2.82 µM [activator, single point]
COc1ccc(OC)c(NC(=O)CSc2nnc(CNC(=O)c3cccs3)o2)c1 12.6 µM [activator, single point]
Cc1cc(C)n(NC(=S)NC2CCCCC2)c(=O)c1C#N 2 µM [activator, full curve, poor fit]
COC(=O)CNC(c1ccccc1)c1cc(C)ccc1NS(=O)(=O)c1ccc(C)cc1 (configuration not stated) 28.2 µM [activator, partial curve, poor fit]
CN1CCN(NC(=O)c2cn(-c3ccccc3)nc2-c2cccs2)CC1 28.2 µM [activator, single point]
CN(C)CCNC(=O)/C=N/O 3.16 µM [activator, single point]
Cn1cccc1Cc1nnc(SCC(=O)N2CCc3ccccc32)n1-c1ccc(F)cc1 5.01 µM [activator, single point]
COc1cc2c(cc1C1NC(=S)NC(C)=C1C(N)=O)CCCC2 (configuration not stated) 28.2 µM [activator, single point]
COc1cc(C=O)ccc1OCCOCCOc1c(C)cc(Cl)cc1Cl 28.2 µM [activator, single point]
Cc1cc(C(c2ccc(O)cc2)c2cc(C)c(O)cc2C)c(C)cc1O 2.82 µM [activator, single point]
CCOC(=O)C1(CCOc2ccccc2)CCN(Cc2ccc(OC)cc2)CC1 31.6 µM [activator, partial curve, poor fit]
Cc1cccc(C(=O)NC2CCN(S(=O)(=O)c3cccc(F)c3)CC2)c1 3.55 µM [activator, single point]
CC(=O)N/C(=N/c1nc(C)cc(C)n1)Nc1cccc(C)c1C 8.91 µM [activator, partial curve]
CCOc1cccc(/C=N/NS(=O)(=O)c2ccc(C)c([N+](=O)[O-])c2)c1O 7.08 µM [activator, partial curve, poor fit]
O=C(N/N=C/c1ccccn1)c1cccc(S(=O)(=O)N2CCCC2)c1 1.41 µM [activator, partial curve, poor fit]
Cn1cc(Cl)c(C(=O)NNC(=S)NCc2ccco2)n1 20 µM [activator, single point]
CCOC(=O)c1sc(=NC(=O)c2ccc(F)cc2)n(C)c1C 5.01 µM [activator, single point]
CCCn1nc(NC(=O)CC(C)C)c2cc3cccc(C)c3nc21 28.2 µM [activator, single point]
Cn1c(=O)[nH]c(=O)c2c1nc(NCc1ccccc1)n2Cc1ccc(F)cc1 5.01 µM [activator, single point]
COc1ccc(OC)c(CCNC(=O)C(C)n2nc(C)c3c(C)n(-c4ccccc4)nc3c2=O)c1 (configuration not stated) 2.82 µM [activator, full curve]
COc1cccc(C(=O)N2CCC(n3nccc3NC(=O)C(OC)c3ccccc3)CC2)c1 (configuration not stated) 11.2 µM [activator, single point]
O=C(O)c1ccc(Nc2nc3ccccc3nc2NS(=O)(=O)c2cccs2)cc1 7.94 µM [activator, partial curve, poor fit]
CCCCc1cc(=O)oc2cc(OCC(=O)Nc3cccnc3)c(Cl)cc12 5.01 µM [activator, single point]
O=C(Nc1ccccc1Br)c1ccc2nccnc2c1 0.501 µM [activator, full curve, poor fit]
CC(C)C(=O)NNC(=O)c1cc2sccc2s1 11.2 µM [activator, partial curve, poor fit]
N#Cc1cc[n+](CC(=O)c2ccc(NC(=O)c3ccccc3)cc2)cc1 15.8 µM [activator, single point]

Not a retest: 12 of the compounds above.
Potency, inconclusive:
COC(=O)c1ccc(COC(=O)c2ccc(-n3cnnn3)cc2)o1 12.6 µM [activator, partial curve, poor fit]
Cc1cc(-c2ccccc2)nc(SCc2ccc(C(=O)O)cc2)n1 3.55 µM [activator, single point]
CCN(CC)S(=O)(=O)c1cccc(NC(=O)COC(=O)CCC(=O)c2cccs2)c1 11.2 µM [activator, partial curve, poor fit]
COc1ccc(CNC(=O)CSc2nnc(-c3cccnc3)n2N)cc1 2.51 µM [activator, partial curve, poor fit]
Nc1ccccc1C#Cc1ccc([N+](=O)[O-])cc1 2.82 µM [activator, single point]
O=C(O)c1ccc(NCc2cccnc2)c([N+](=O)[O-])c1 2.82 µM [activator, single point]
COc1ccc(OC)c(NC(=O)CSc2nnc(CNC(=O)c3cccs3)o2)c1 12.6 µM [activator, single point]
Cc1cc(C)n(NC(=S)NC2CCCCC2)c(=O)c1C#N 2 µM [activator, full curve, poor fit]
COC(=O)CNC(c1ccccc1)c1cc(C)ccc1NS(=O)(=O)c1ccc(C)cc1 (configuration not stated) 28.2 µM [activator, partial curve, poor fit]
CN1CCN(NC(=O)c2cn(-c3ccccc3)nc2-c2cccs2)CC1 28.2 µM [activator, single point]
CN(C)CCNC(=O)/C=N/O 3.16 µM [activator, single point]
Cn1cccc1Cc1nnc(SCC(=O)N2CCc3ccccc32)n1-c1ccc(F)cc1 5.01 µM [activator, single point]

Following part:

Potency, inactive:
CCc1nnc(NC(=O)CC23CC4CC(CC(Br)(C4)C2)C3)s1
O=C(/C=C/c1ccccc1)NC(=S)Nc1ccc(N2CCOCC2)cc1
COc1cc([C@@H]2C[C@H]3CN(c4ccccc4)C(=O)[C@]34CCCN24)cc(OC)c1OC
CC(C)c1ccc(O)c(NC(=O)c2ncn[nH]2)c1
Cc1cccn2c(=O)c3cc(S(=O)(=O)c4ccc(F)cc4)c(=N)n(Cc4ccco4)c3nc12
CCOC(=O)C1(CCOc2ccccc2)CCN(C(=O)c2ccc(-n3cccn3)cc2)CC1
O=C1OC(NC(=O)c2ccccc2)C(n2cc(CO)nn2)=C1Cl (configuration not stated)
N#Cc1ccc(/C=C/C(=O)c2ccccc2)cc1
O=C(NC(=S)Nc1cccnc1)c1ccccc1
CCN1c2ccccc2-c2nc3ccccc3n2C1c1cccs1 (configuration not stated)
CN(C)CCNC(=O)c1cccc2nc3cccc(F)c3nc12
N#C/C(=C\c1ccc(OCc2ccc(Br)cc2)cc1)C(=O)Nc1cccc(C(=O)O)c1
O=C(CSc1nnc(-c2ccncc2)s1)Nc1ccccc1
Nc1ccc(-c2nc3ccc(-c4nc5ccccc5o4)cc3[nH]2)cc1
O=C(COc1ccc(Br)cc1Cl)NC(=S)Nc1ccccn1
CCc1n[nH]c2c1C(=O)CC(C)(C)C2
CCn1nc(NC(=O)C(C)C)c2cc3ccc(C)cc3nc21
O=C(COC(=O)c1n[nH]c(=O)c2ccccc12)NCc1ccccc1
C=CCOc1nc2c(c(=O)n(C)c(=O)n2C)n1Cc1ccc(Cl)cc1
Cc1ccccc1C(=O)N1CCC(C(=O)N2CCCc3ccccc32)CC1
COc1cc(C(=O)OCCCN2CCOCC2)ccc1O
CCN(CC)c1ccc(/C=N/Nc2nc(C)cc(=O)[nH]2)c(O)c1
Cc1onc(-c2c(F)cccc2Cl)c1C(=O)Nc1nnc(-c2ccccc2)s1
Cc1ccc(C2CC2c2n[nH]c(=S)n2-c2cccc(C)c2)cc1 (configuration not stated)

activation, inconclusive:
CCOc1cc2c(cc1C=O)OC(C)C2 (configuration not stated) 28.4% [activator]
O=C(Nc1cccc(C(F)(F)F)c1)Nc1ccon1 15.5% [activator]
CN=C1SC(C(=O)Nc2ccccc2Cl)CC(=O)N1c1ccc(OC(F)(F)Cl)cc1 (configuration not stated) -61.9% [activator]
CCCNC(=O)c1nc(C)n(-c2cc(Cl)ccc2Cl)n1 -46.9% [activator]

activation, inactive:
COc1cc2ccccc2cc1C(=O)Nc1ccc(Cc2ccncc2)cc1 40.9% [at 7.66 µM]
